The target in assay [1] is T1, Claspin (human, UniProt Q9HAW4 1-1339).
T1 construct: also called endogenous Claspin; wild type Claspin
The experiment in a line: co-immunoprecipitation with anti-FLAG resin from HEK293T cells, immunoblot (FIG. 2A).

Chains of the proteins cited; added tags and fusions are not shown. Lines headed by an entry give the natural chain unless they say otherwise; changes in a name come on top.
UniProt Q9HAW4: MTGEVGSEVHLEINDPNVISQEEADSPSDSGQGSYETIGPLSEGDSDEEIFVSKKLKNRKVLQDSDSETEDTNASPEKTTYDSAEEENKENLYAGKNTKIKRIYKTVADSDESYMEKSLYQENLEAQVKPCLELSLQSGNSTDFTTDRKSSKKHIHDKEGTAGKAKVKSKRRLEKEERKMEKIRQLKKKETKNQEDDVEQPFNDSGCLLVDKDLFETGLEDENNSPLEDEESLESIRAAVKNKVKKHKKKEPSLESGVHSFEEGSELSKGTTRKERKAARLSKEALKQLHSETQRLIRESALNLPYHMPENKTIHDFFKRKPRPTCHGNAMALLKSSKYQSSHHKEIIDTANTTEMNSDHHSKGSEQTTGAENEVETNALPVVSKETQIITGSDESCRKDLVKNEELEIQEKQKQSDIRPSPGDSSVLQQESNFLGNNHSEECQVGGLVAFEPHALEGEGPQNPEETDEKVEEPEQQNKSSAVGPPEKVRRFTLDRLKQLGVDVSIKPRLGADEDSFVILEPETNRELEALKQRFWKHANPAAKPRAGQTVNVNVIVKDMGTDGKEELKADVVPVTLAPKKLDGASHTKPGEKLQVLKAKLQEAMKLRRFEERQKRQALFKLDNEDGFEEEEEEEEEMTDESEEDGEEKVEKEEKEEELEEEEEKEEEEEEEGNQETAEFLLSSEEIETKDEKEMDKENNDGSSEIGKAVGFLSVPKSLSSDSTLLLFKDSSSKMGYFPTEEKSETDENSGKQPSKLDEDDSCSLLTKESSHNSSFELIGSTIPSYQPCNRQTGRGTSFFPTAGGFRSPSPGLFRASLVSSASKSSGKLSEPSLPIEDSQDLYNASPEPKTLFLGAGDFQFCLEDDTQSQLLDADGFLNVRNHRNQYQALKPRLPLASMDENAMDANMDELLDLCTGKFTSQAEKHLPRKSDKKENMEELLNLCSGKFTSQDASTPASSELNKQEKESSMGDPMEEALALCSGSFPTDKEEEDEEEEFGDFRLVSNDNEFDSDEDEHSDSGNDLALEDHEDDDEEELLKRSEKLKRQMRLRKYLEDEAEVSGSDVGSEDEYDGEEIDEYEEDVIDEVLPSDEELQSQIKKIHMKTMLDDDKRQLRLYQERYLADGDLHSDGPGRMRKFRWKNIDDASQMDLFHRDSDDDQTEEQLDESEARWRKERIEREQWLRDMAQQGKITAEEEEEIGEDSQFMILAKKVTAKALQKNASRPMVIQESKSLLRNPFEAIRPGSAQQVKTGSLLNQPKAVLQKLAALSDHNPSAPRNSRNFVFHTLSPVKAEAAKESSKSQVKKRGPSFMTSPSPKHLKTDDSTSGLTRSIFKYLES
UniProt Q9UM11: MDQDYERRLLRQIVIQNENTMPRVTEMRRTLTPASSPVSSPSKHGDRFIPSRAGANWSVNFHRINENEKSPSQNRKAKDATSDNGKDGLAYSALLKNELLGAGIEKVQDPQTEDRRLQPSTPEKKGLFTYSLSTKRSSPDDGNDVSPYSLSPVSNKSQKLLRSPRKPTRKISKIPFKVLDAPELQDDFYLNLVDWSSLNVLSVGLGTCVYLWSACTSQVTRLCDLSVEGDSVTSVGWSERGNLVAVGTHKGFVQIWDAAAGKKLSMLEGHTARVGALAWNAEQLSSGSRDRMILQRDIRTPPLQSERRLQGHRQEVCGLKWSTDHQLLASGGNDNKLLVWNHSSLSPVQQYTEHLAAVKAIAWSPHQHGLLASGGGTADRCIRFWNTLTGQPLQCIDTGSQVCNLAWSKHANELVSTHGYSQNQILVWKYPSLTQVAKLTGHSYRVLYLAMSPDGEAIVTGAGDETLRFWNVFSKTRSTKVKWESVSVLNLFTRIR

In assay [2] the target is Cdh1 (human) (UniProt Q9UM11). The experiment in a line: co-immunoprecipitation from G2 U2OS cells, immunoblot (FIG. 11F).
The target of assay [3] is Cdh1 (human) (UniProt Q9UM11). The experiment in a line: co-immunoprecipitation from G2 U2OS cells with or without doxorubicin, immunoblot (FIG. 11F).
In assay [4] the target is Cdh1 (human) (UniProt Q9UM11). The experiment in a line: co-immunoprecipitation from G2 U2OS cells, immunoblot (FIGS. 11-13).
Assay [5] addresses Cdh1 (human) (UniProt Q9UM11). The experiment in a line: co-immunoprecipitation with anti-FLAG resin from G2 U2OS cells after doxorubicin, immunoblot (FIG. 11F).

No constants are given. Whether binding was seen depends on the method and setting. In cells and extracts the contact can be indirect. Some results given as binding are weak or reduced against the parent protein; the word gives no strength. For some assays here: Where a sequence is shown, tags or fusion partners need not be part of it.

“FLAG-tagged Cdh1 (from UniProt Q9UM11 1-496)”: the binding entry in assay [1] was “binds”.

B1: FLAG-tagged Cdc14B (enzyme, not shown: small tags and cut ends)
chain: MKRKSERRSSWAAAPPCSRRCSSTSPGVKKIRSSTQQDPRRRDPQDDVYLDITDRLCFAILYSRPKSASNVHYFSIDNELEYENFYADFGPLNLAMVYRYCCKINKKLKSITMLRKKIVHFTGSDQRKQANAAFLVGCYMVIYLGRTPEEAYRILIFGETSYIPFRDAAYGSCNFYITLLDCFHAVKKAMQYGFLNFNSFNLDEYEHYEKAENGDLNWIIPDRFIAFCGPHSRARLESGYHQHSPETYIQYFKNHNVTTIIRLNKRMYDAKRFTDAGFDHHDLFFADGSTPTDAIVKEFLDICENAEGAIAVHCKAGLGRTGTLIACYIMKHYRMTAAETIAWVRICRPGSVIGPQQQFLVMKQTNLWLEGDYFRQKLKGQENGQHRAAFSKLLSGVDDISINGVENQDQQEPEPYSDDDEINGVTQGDRLRALKSRRQSKTNAIPLTLSISRTKTVLR
As to B1, the binding result in assay [2], in assay [3], in assay [4] and in assay [5] was “binds” each time.

The values are drawn from patent publication US20100016408A1 (NEW YORK UNIVERSITY, published 2010).
